In all, about 330,000 compounds went through this assay and about 7,700 (2.3%) were called active. This list was built around the results that the source calls inconclusive (neither active nor inactive); the mix of calls is not that of the screen. Calls follow the shape of the dose curve; as a rule, active = well fitted inhibition curve with a large enough effect; inconclusive = small, poorly fitted or top-dose-only effect, or effect the other way; inactive = flat fitted curve, though single readings scatter. Potencies of inconclusive entries are doubtful fits and often do not repeat.
Assay: qHTS screen for small molecules that inhibit ELG1-dependent DNA repair in human embryonic kidney (HEK293T) cells expressing luciferase-tagged ELG1; also: nearly all actives have a fitted effect of over 55% in size
Details: HEK293T ELG1-luciferase reporter, luminescence, 16 h, DNA damage induced by 5-fluorouridine; activity change, negative = inhibition: at 46.1 µM (top of the series)
How it was run: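 In this reporter screen, reduction of luminescence relative to DMSO vehicle indicated activity. Compounds and 5-fluorouridine were added together to 2,000 cells per well, incubated for 16 hr at 37 °C, then developed with ONE-Glo.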
% is scaled to controls: 0 for no effect and ±100 for the full control effect; potency is read from the fitted curve at half-maximal effect.

**Q.** Which Potency does the source give for CCOC(=O)Cn1nnnc1C(C(C)C)N(Cc1cccs1)Cc1cc2cc(C)ccc2[nH]c1=O (stereo not drawn) here?
**A.** inconclusive: 29.1 µM [inhibitor, single point]

**Q.** With CC(C)(C)c1ccc(C(=O)c2c[nH]c(C(=O)O)c2)cc1 as the compound, how does the Potency read?
**A.** inconclusive: 2.59 µM [activator, full curve]

**Q.** For CC(Nc1ccc(Cl)cc1)C(=O)NN (stereo not drawn), which “activity change, negative = inhibition” value is on record?
**A.** inactive: 3.12%

**Q.** Which Potency does the source give for COc1cccc(C(=O)Nc2ccc(N(C)C)cc2)c1OC here?
**A.** inconclusive: 5.8 µM [activator, partial curve]

**Q.** With COc1cc(OC)c(N(C)S(=O)(=O)c2cccc(C(=O)NC3=NCCS3)c2)cc1Cl as the compound, how does the Potency read?
**A.** active: 16.4 µM

**Q.** Which “activity change, negative = inhibition” value does the source give for CC(C)C(=O)Nc1cccc(NC(=S)NC(=O)c2ccc3c(c2)OCO3)c1 here?
**A.** inactive: -3.23%

**Q.** For CCOc1cc(C#N)c(NC(=O)c2ccnn2C)cc1OCC, which Potency is on record?
**A.** inconclusive: 20.6 µM [activator, partial curve, poor fit]

**Q.** For Cc1cc2c(n1-c1ccc(Br)cc1)CC(C)(C)CC2=O, which “activity change, negative = inhibition” value is on record?
**A.** inactive: 3.97%

**Q.** Which Potency does the source give for C#CCNC(=O)C1CCN(c2cc(C)nc(-c3ccccc3)n2)CC1 here?
**A.** inconclusive: 23.1 µM [inhibitor, single point]

**Q.** Which “activity change, negative = inhibition” value does the source give for COc1ccc(C)cc1Nc1n[n+](C)c(-c2c3ccccc3cc3ccccc23)s1 here?
**A.** inactive: -6.78%

**Q.** For COCc1ccc(C(=O)N2CCCC(Nc3ccc(C(C)C)cc3)C2)o1 (stereo not drawn), which “activity change, negative = inhibition” value is on record?
**A.** inactive: -4.9%

**Q.** With Cc1cc(NC(=O)c2ccc3nccnc3c2)ccc1Br as the compound, how does the Potency read?
**A.** inconclusive: 0.58 µM [activator, partial curve]

**Q.** With O=C(CCN1C(=O)C2CCCCC2C1=O)Nc1nc2c(F)cc(F)cc2s1 (stereo not drawn) as the compound, how does the Potency read?
**A.** inconclusive: 7.3 µM [activator, partial curve]

**Q.** For CC1=NOC(=O)/C1=C\c1ccc(-c2ccc(Cl)c(C(=O)O)c2)o1, which “activity change, negative = inhibition” value is on record?
**A.** inactive: -2.17%

**Q.** For N#Cc1cccc(NC(=O)CSc2nnc(-c3n[nH]c4ccccc34)o2)c1, which Potency is on record?
**A.** inconclusive: 16.4 µM [activator, partial curve]

**Q.** With CCOC(=O)C1(CCOc2ccccc2)CCN(Cc2ccc(COC)o2)CC1 as the compound, how does the Potency read?
**A.** inconclusive: 14.6 µM [inhibitor, partial curve, poor fit]

**Q.** For CCN(CC)C(=O)c1sc2nc(-c3ccccc3)ccc2c1N, which Potency is on record?
**A.** inconclusive: 5.17 µM [activator, full curve]

**Q.** With CN(Cc1cccc(Cl)c1Cl)CC(O)COc1ccccc1 (stereo not drawn) as the compound, how does the “activity change, negative = inhibition” value read?
**A.** inactive: -0.874%

**Q.** For O=C(NCCc1ccccc1)c1cc(=O)c2ccccc2o1, which “activity change, negative = inhibition” value is on record?
**A.** inactive: 3.19%

**Q.** For CC(=O)c1ccc(NC(=O)CSc2nnc(NC(=O)c3ccco3)s2)cc1, which Potency is on record?
**A.** inconclusive: 16.4 µM [activator, partial curve]

**Q.** With COc1ccc(CCNC(=O)CNCCc2ccc(F)cc2)cc1 as the compound, how does the “activity change, negative = inhibition” value read?
**A.** inactive: -4.99%

**Q.** Which Potency does the source give for S=C(NC1CCCC1)N1CCN(c2cccc(Cl)c2)CC1 here?
**A.** inconclusive: 29.1 µM [inhibitor, single point]

**Q.** For O=C(c1ccccc1)c1ccc(OCCCN2CCCC2)cc1, which Potency is on record?
**A.** inconclusive: 13 µM [activator, single point]

**Q.** Which Potency does the source give for CCC(CC)C(=O)Nc1nnc(S(=O)(=O)Nc2ccccc2C)s1 here?
**A.** inconclusive: 29.1 µM [inhibitor, single point]

**Q.** With CCN(CC)S(=O)(=O)c1cc(NC(=O)C2Cc3ccccc3C(=O)O2)ccc1C (stereo not drawn) as the compound, how does the Potency read?
**A.** inconclusive: 29.1 µM [inhibitor, single point]

**Q.** With COC(=O)c1sccc1NC(=O)COc1ccc(Cl)cc1Cl as the compound, how does the Potency read?
**A.** inconclusive: 6.51 µM [activator, partial curve]

**Q.** For OCCCNc1nc(-c2ccc(Br)cc2)nnc1-c1ccc(Cl)cc1, which “activity change, negative = inhibition” value is on record?
**A.** inactive: -5.39%

**Q.** For Cc1cccc(-n2nc3c(c2NC(=O)c2ccco2)CSC3)c1C, which “activity change, negative = inhibition” value is on record?
**A.** inactive: 12.7%

**Q.** With O=C(Nc1c2c(nn1-c1ccc(Cl)cc1)CS(=O)(=O)C2)C1CC1 as the compound, how does the “activity change, negative = inhibition” value read?
**A.** inactive: -0.194%

**Q.** With O=C(Nc1cccc(OC(=O)c2ccc(Br)o2)c1)c1ccccc1 as the compound, how does the Potency read?
**A.** inconclusive: 29.1 µM [activator, single point]

**Q.** Which Potency does the source give for COc1ccccc1NC(=O)N(Cc1ccccc1)C1=NCC(C)S1 (stereo not drawn) here?
**A.** inconclusive: 16.4 µM [activator, partial curve, poor fit]

**Q.** With CCOc1ccc(NC(=O)N2CCN(Cc3ccc4c(c3)OCO4)CC2)cc1 as the compound, how does the “activity change, negative = inhibition” value read?
**A.** inactive: -16.6%

**Q.** For Cc1cccc(COc2ccc(S(=O)(=O)N3CCOCC3)cc2[N+](=O)[O-])c1, which “activity change, negative = inhibition” value is on record?
**A.** inactive: 8.1%

**Q.** Which Potency does the source give for Cc1onc(-c2ccccc2)c1CNC(=O)C1COc2ccccc2O1 (stereo not drawn) here?
**A.** inconclusive: 18.3 µM [inhibitor, single point]

**Q.** Which Potency does the source give for NC(=S)Nc1cccc2cnccc12 here?
**A.** inconclusive: 32.6 µM [activator, partial curve, poor fit]

**Q.** With Cc1ccc(NC(=O)NCc2ccc3c(c2)OCO3)cc1C as the compound, how does the Potency read?
**A.** inconclusive: 16.4 µM [activator, partial curve]

**Q.** For CCN(CC)C(=O)CNc1ccc(C(F)(F)F)cc1[N+](=O)[O-], which “activity change, negative = inhibition” value is on record?
**A.** inactive: -6.49%

**Q.** Which Potency does the source give for Cc1c(OCC(=O)NCCN2CCOCC2)ccc2c3c(c(=O)oc12)CCC3 here?
**A.** inconclusive: 23.1 µM [activator, single point]

**Q.** Which “activity change, negative = inhibition” value does the source give for C=CCn1c(SCC(=O)N2CCOCC2)nc(O)c(Cc2ccccc2)c1=O here?
**A.** inactive: 0%

**Q.** With COC(=O)C1=C(C)N(c2ccc(OC)c(OC)c2)C(=O)/C1=C\c1cccs1 as the compound, how does the Potency read?
**A.** inconclusive: 2.31 µM [inhibitor, partial curve, poor fit]

**Q.** Which Potency does the source give for Nc1cc(=O)[nH]c(SCC(=O)Nc2ccccc2Sc2ccccc2)n1 here?
**A.** inconclusive: 20.6 µM [inhibitor, single point]

**Q.** With CCOc1ccc(CCNC(=O)c2cc(-c3ccccc3)c(N3CCOCC3)s2)cc1OCC as the compound, how does the Potency read?
**A.** active: 16.4 µM

**Q.** With COc1ccc(N2C(=O)/C(=C\c3ccco3)N=C2SCC(=O)NC(C)C)cc1Cl as the compound, how does the Potency read?
**A.** inconclusive: 20.6 µM [inhibitor, single point]

**Q.** With FC(F)(F)c1ccccc1NC(=S)N1CCc2ccccc2C1 as the compound, how does the Potency read?
**A.** active: 14.6 µM

**Q.** For CC(C)NC(=O)CCCc1cn(C)c2ccccc12, which “activity change, negative = inhibition” value is on record?
**A.** inactive: 7.79%

**Q.** Which Potency does the source give for COc1ccc(/C=C/c2nc(-c3ccccc3O)n[nH]2)cc1 here?
**A.** inconclusive: 6.51 µM [activator, partial curve]

**Q.** With S=C(NCc1ccc2c(c1)OCO2)NCc1ccc2c(c1)OCO2 as the compound, how does the “activity change, negative = inhibition” value read?
**A.** inactive: -1.82%

**Q.** For Cc1nn(C)c(C(=O)Nc2cccc(CN3CCOCC3)c2)c1Br, which Potency is on record?
**A.** inconclusive: 23.1 µM [inhibitor, partial curve, poor fit]

**Q.** For Cc1ccc(NC(=O)COc2cccnc2[N+](=O)[O-])cc1S(=O)(=O)N1CCCCC1, which Potency is on record?
**A.** inconclusive: 18.4 µM [inhibitor, single point]

**Q.** Which Potency does the source give for O=C(Cn1c(-c2ccccc2)noc1=O)N1CCC(Cc2ccccc2)CC1 here?
**A.** inconclusive: 32.6 µM [inhibitor, partial curve, poor fit]

**Q.** With CN1CCN(C2CCCCC2NS(=O)(=O)c2ccc(Cl)cc2)CC1 (stereo not drawn) as the compound, how does the Potency read?
**A.** inconclusive: 4.61 µM [activator, partial curve, poor fit]

**Q.** Which “activity change, negative = inhibition” value does the source give for O=C(O)CC(c1ccc(Br)cc1)N1Cc2ccccc2C1=O (stereo not drawn) here?
**A.** inactive: -10.4%

**Q.** For O=C(COC(=O)CNC(=O)C1CCCCC1)Nc1ccc2ccccc2c1, which Potency is on record?
**A.** inconclusive: 29.1 µM [activator, single point]

**Q.** With Cc1cc(C)n2nc(SCC(=O)c3cc(C)n(CC4CCCO4)c3C)nc2n1 (stereo not drawn) as the compound, how does the Potency read?
**A.** inconclusive: 13 µM [inhibitor, partial curve, poor fit]

**Q.** For CC1CCCC(C)N1C(=O)COC(=O)c1ccc(O)cc1 (stereo not drawn), which “activity change, negative = inhibition” value is on record?
**A.** inactive: 21.2%

**Q.** With O=S(=O)(/C=C/c1cccc(Br)c1)N1CCOCC1 as the compound, how does the “activity change, negative = inhibition” value read?
**A.** inactive: 24%

**Q.** Which Potency does the source give for Cc1nc(NC(=O)CCN2C(=O)C3CC=CCC3C2=O)sc1C (stereo not drawn) here?
**A.** inconclusive: 14.6 µM [activator, partial curve, poor fit]

**Q.** With Cc1ccnc(NS(=O)(=O)c2ccc(NC(=O)c3ccc([N+](=O)[O-])s3)cc2)n1 as the compound, how does the Potency read?
**A.** inconclusive: 5.17 µM [inhibitor, full curve]

**Q.** Which Potency does the source give for CC1CCN(c2nc3ccc(C(=O)NCCCN4CCCCC4)cc3s2)CC1 here?
**A.** inconclusive: 0.164 µM [activator, full curve]

**Q.** Which “activity change, negative = inhibition” value does the source give for COc1ccc(OC)c(CN2CCN(C(=O)CCNC(=O)c3ccc(Br)cc3)CC2)c1 here?
**A.** inactive: 1.16%

**Q.** For O=C(N/N=C/c1ccc(OCC(=O)N2CCCC2)cc1)C(=O)NC1CC1, which Potency is on record?
**A.** inconclusive: 32.6 µM [activator, partial curve, poor fit]

**Q.** Which Potency does the source give for Oc1c(Cl)cc(Cl)cc1C=Nc1cc(C(F)(F)F)ccc1N1CCc2ccccc2C1 here?
**A.** inconclusive: 2.91 µM [activator, partial curve]

**Q.** For COC(=O)c1ccc(COC(=O)CNS(=O)(=O)c2ccc(C)cc2)cc1, which Potency is on record?
**A.** inconclusive: 20.6 µM [activator, single point]

**Q.** For CCN(CC1CCCN(CCc2cccc(F)c2)C1)C(=O)c1ccc(CSC)o1 (stereo not drawn), which “activity change, negative = inhibition” value is on record?
**A.** inactive: -1.26%

**Q.** For Cc1cccc(CNC(=O)c2ccc(NC(=O)C3=CSCCO3)cc2)c1, which Potency is on record?
**A.** inconclusive: 13 µM [activator, partial curve]

**Q.** For CCCCOC(=O)Nc1nnc(/C=C/c2ccc(OC)cc2)s1, which Potency is on record?
**A.** inconclusive: 29.1 µM [activator, single point]

**Q.** With CC(C)C(NC(=O)Cc1ccccc1)C(=O)N1CCN(c2cccc(Cl)c2)CC1 (stereo not drawn) as the compound, how does the Potency read?
**A.** inconclusive: 20.6 µM [inhibitor, partial curve, poor fit]

**Q.** Which Potency does the source give for CCCN(CCC)C(=O)C1CCN(c2cc(C)nc3c(-c4ccc(OC)c(OC)c4)c(C)nn23)CC1 here?
**A.** active: 6.51 µM

**Q.** Which “activity change, negative = inhibition” value does the source give for Cc1noc(C)c1S(=O)(=O)N1CCC(C(N)=O)CC1 here?
**A.** inactive: -1.61%

**Q.** With CC(C)Cc1nc2oc3c(NCc4cccnc4)ncnc3c2c2c1CCC2 as the compound, how does the Potency read?
**A.** inconclusive: 20.6 µM [inhibitor, partial curve, poor fit]

**Q.** For O=C(NCCCSc1ccccc1)c1ccc(=O)[nH]c1, which “activity change, negative = inhibition” value is on record?
**A.** inactive: -0.639%

**Q.** For C=CCNc1nc(NCc2ccccc2)c(C#N)c2c1CN(C)CC2, which “activity change, negative = inhibition” value is on record?
**A.** inactive: -22.9%

**Q.** Which Potency does the source give for O=C(O)CC1(c2ccccc2)C(=O)c2ccccc2C1=O here?
**A.** inconclusive: 16.4 µM [activator, single point]

From PubChem BioAssay AID504467 (National Center for Advancing Translational Sciences (NCATS), 2011)
